Laboratory results as given in US20090324602A1.
No constants are given. Whether binding was seen depends on the method and setting. Some results given as binding are weak or reduced against the parent protein; the word gives no strength.

Chains of the proteins cited; added tags and fusions are not shown. Lines headed by an entry give the natural chain unless they say otherwise; changes in a name come on top. Residues count along the entry.
UniProt Q9NP84: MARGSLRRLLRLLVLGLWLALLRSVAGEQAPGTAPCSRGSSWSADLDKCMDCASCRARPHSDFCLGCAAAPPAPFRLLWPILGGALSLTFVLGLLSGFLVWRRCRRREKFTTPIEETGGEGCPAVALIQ
UniProt Q9CR75: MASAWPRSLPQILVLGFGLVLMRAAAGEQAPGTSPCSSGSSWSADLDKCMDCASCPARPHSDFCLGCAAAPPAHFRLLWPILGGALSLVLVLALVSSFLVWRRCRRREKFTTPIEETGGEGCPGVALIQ
UniProt O43508, residues 106-249: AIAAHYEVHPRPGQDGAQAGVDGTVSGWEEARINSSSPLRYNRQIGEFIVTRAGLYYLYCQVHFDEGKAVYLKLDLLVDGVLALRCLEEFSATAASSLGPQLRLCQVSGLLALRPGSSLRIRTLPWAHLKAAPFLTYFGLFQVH
UniProt O54907, residues 106-249: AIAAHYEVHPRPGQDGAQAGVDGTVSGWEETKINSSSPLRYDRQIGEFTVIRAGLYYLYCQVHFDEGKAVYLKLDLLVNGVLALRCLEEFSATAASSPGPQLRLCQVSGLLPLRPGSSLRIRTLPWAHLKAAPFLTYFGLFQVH

Key:
[1] = molecular target: human Fn14 R56P, expressed on the cell surface (human) (UniProt Q9NP84); experiment: direct binding FACS (FIG. 23A)
[2] = molecular target: human Fn14 H60K, expressed on the cell surface (human) (UniProt Q9NP84); experiment: direct binding FACS (FIG. 23A)
[3] = molecular target: human Fn14 T33Q, expressed on the cell surface (human) (UniProt Q9NP84); experiment: direct binding FACS (FIG. 23A)
[4] = molecular target: human Fn14 S40R, expressed on the cell surface (human) (UniProt Q9NP84); experiment: direct binding FACS (FIG. 23A)
[5] = molecular target: human Fn14 L65Q, expressed on the cell surface (human) (UniProt Q9NP84); experiment: direct binding FACS (FIG. 23A)
[6] = molecular target: human Fn14 M50A, expressed on the cell surface (human) (UniProt Q9NP84); experiment: direct binding FACS (FIG. 23A)
[7] = molecular target: human Fn14 R56K, expressed on the cell surface (human) (UniProt Q9NP84); experiment: direct binding FACS (FIG. 23A)
[8] = molecular target: mouse Fn14, full-length, expressed on the cell surface (mouse) (UniProt Q9CR75); experiment: FACS direct binding to transfected cells, MFI
[9] = molecular target: cynomolgus monkey Fn14, full-length, expressed on the cell surface (cynomolgus monkey); experiment: FACS direct binding to transfected cells, MFI
[10] = molecular target: human Fn14, full-length, expressed on the cell surface (human) (UniProt Q9NP84); experiment: FACS direct binding to transfected cells, MFI
[11] = molecular target: human Fn14 W42A, expressed on the cell surface (human) (UniProt Q9NP84); experiment: FACS direct binding, 293E cells transiently expressing the Fn14 construct, MFI
[12] = molecular target: murine Fn14 W42A, expressed on the cell surface (mouse) (UniProt Q9CR75); experiment: as above
[13] = molecular target: cynomolgus monkey Fn14 W42A, expressed on the cell surface (cynomolgus monkey); experiment: as above
[14] = molecular target: human Fn14, full-length, expressed on the cell surface (human) (UniProt Q9NP84); experiment: as above
[15] = molecular target: human Fn14 R56P, expressed on the cell surface (human) (UniProt Q9NP84); experiment: FACS direct binding, cells expressing the huFn14 construct, MFI
[16] = molecular target: human Fn14 W42A, expressed on the cell surface (human) (UniProt Q9NP84); experiment: as above
[17] = molecular target: human Fn14 H60K, expressed on the cell surface (human) (UniProt Q9NP84); experiment: as above
[18] = molecular target: human Fn14 T33Q, expressed on the cell surface (human) (UniProt Q9NP84); experiment: as above
[19] = molecular target: human Fn14 S40R, expressed on the cell surface (human) (UniProt Q9NP84); experiment: as above
[20] = molecular target: human Fn14 L65Q, expressed on the cell surface (human) (UniProt Q9NP84); experiment: as above
[21] = molecular target: human Fn14 M50A, expressed on the cell surface (human) (UniProt Q9NP84); experiment: as above
[22] = molecular target: human Fn14 R56K, expressed on the cell surface (human) (UniProt Q9NP84); experiment: as above
[23] = molecular target: human Fn14, full-length, expressed on the cell surface (human) (UniProt Q9NP84); experiment: as above
[24] = molecular target: mouse Fn14, full-length, expressed on the cell surface (mouse) (UniProt Q9CR75); experiment: direct binding FACS, Fn14-transfected 293E cells (FIG. 19B)
[25] = molecular target: cynomolgus monkey Fn14, full-length, expressed on the cell surface (cynomolgus monkey); experiment: as above
[26] = molecular target: human Fn14, full-length, expressed on the cell surface (human) (UniProt Q9NP84); experiment: as above
[27] = molecular target: mouse Fn14, full-length, expressed on the cell surface (mouse) (UniProt Q9CR75); experiment: FACS (legend of FIG. 19B)
[28] = molecular target: cynomolgus monkey Fn14, full-length, expressed on the cell surface (cynomolgus monkey); experiment: FACS (legend of FIG. 19B)
[29] = molecular target: human Fn14, full-length, expressed on the cell surface (human) (UniProt Q9NP84); experiment: FACS (legend of FIG. 19B)
[30] = molecular target: human Fn14 W42A, expressed on the cell surface (human) (UniProt Q9NP84); experiment: FACS, transiently transfected 293E cells (FIG. 21A)
[31] = molecular target: murine Fn14 W42A, expressed on the cell surface (mouse) (UniProt Q9CR75); experiment: as above
[32] = molecular target: cynomolgus monkey Fn14 W42A, expressed on the cell surface (cynomolgus monkey); experiment: as above
[33] = molecular target: human Fn14 W42A, expressed on the cell surface (human) (UniProt Q9NP84); experiment: FACS (legend of FIG. 21A)
[34] = molecular target: murine Fn14 W42A, expressed on the cell surface (mouse) (UniProt Q9CR75); experiment: FACS (legend of FIG. 21A)
[35] = molecular target: cynomolgus monkey Fn14 W42A, expressed on the cell surface (cynomolgus monkey); experiment: FACS (legend of FIG. 21A)
[36] = molecular target: mouse Fn14, full-length, expressed on the cell surface (mouse) (UniProt Q9CR75); experiment: FACS (legend of FIG. 19C)
[37] = molecular target: cynomolgus monkey Fn14, full-length, expressed on the cell surface (cynomolgus monkey); experiment: FACS (legend of FIG. 19C)
[38] = molecular target: human Fn14, full-length, expressed on the cell surface (human) (UniProt Q9NP84); experiment: FACS (legend of FIG. 19C)
[39] = molecular target: mouse Fn14, full-length, expressed on the cell surface (mouse) (UniProt Q9CR75); experiment: direct binding FACS, Fn14-transfected 293E cells (FIG. 19C)
[40] = molecular target: cynomolgus monkey Fn14, full-length, expressed on the cell surface (cynomolgus monkey); experiment: as above
[41] = molecular target: human Fn14, full-length, expressed on the cell surface (human) (UniProt Q9NP84); experiment: as above

Measured: binding

Fc-huTWEAK fusion protein (from UniProt O43508 106-249) (Fc fusion)
not listed: [36] | [37] | [38] | [39] | [40] | [41]
binds: all other assays above

muFc-muTWEAK fusion protein (from UniProt O54907 106-249) (Fc fusion)
binds: [8] | [9] | [10] | [36] | [37] | [38] | [39] | [40] | [41]
